From patent US7700638B2, “1,5,7-trisubstituted benzimidazole derivatives and their use for modulating the GABAA receptor complex” (N. V. Organon, priority 2003, dated 2010)
At least one compound was matched to its structure with a doubt left.

Biological target: GABA recognition site and the benzodiazepine modulatory unit (GABAA receptor complex), cerebral cortex membranes
Assay: In vitro inhibition of 3H-flunitrazepam (3H-FNM) binding
Design: species or system rat
Conditions: inhibition of specific binding of 3H-FNM (1 nM), cerebral cortex membranes from male Wistar rats, 40 min at 2° C.
Description: In vitro Inhibition of ^3H-flunitrazepam (^3H-FNM) Binding
The GABA recognition site and the benzodiazepine modulatory unit can selectively be labelled with ^3H-flunitrazepam.
Preparations are performed at 0-4° C. unless otherwise indicated. Cerebral cortex from male Wistar rats (150-200 g) is homogenised for 5-10 sec in 20 ml […] (30 mM, pH 7.4) using an Ultra-Turrax homogeniser. The suspension is centrifuged at 27,000×g for 15 min and the pellet is washed three times with buffer (centrifuged at 27,000×g for 10 min). The washed pellet is homogenized in 20 ml of buffer and incubated on a water bath (37° C.) for 30 min to remove endogenous GABA and then centrifuged for 10 min at 27,000×g. The pellet is then homogenized in buffer and centrifuged for 10 min at 27,000×g. The final pellet is resuspended in 30 ml buffer and the preparation is frozen and stored at −20° C.
The membrane preparation is thawed and centrifuged at 2° C. for 10 min at 27,000×g. The pellet is washed twice with 20 ml 50 mM Tris-citrate, pH 7.1 using an Ultra-Turrax homogeniser and centrifuged for 10 min at 27,000×g. […] Non-specific binding is determined using Clonazepam (1 μM, final concentration). […] The amount of radioactivity on the filters is determined by conventional liquid scintillation counting. […]

OC1CCN(c2cc(C(F)(F)F)cc3ncn(-c4ccccc4)c23)CC1 [Example 75, 7-(4-Hydroxypiperidinyl)-1-phenyl-5-trifluoromethylbenzimidazole]
IC50: 42 nM
